These results are taken from publication PMC10710507 (Nature Communications, 2023).

Holding throughout (format): binding, rat
In data set [1] the test system is enNTS1. Description: Ligand-observed 19F NMR / 19F STD, enNTS1 complex. To be noted: 298 K.
In data set [2] the test system is enNTS1. Briefly: Hydrogen-deuterium exchange mass spectrometry. To be noted: 20 °C; for Relative deuterium uptake, FDFYHYF (TM7) / Relative deuterium uptake, FTMGLQNL (ECL2) / Relative deuterium uptake, PVDVYN (TM2; printed PVDYN in NT8-13 table) / Relative deuterium uptake, DVNTDIYSKV (TM1): enNTS1 + ligand, mean, n = 4 (NT8-13) or 3 (SR142948A).
For data set [3], the system named is G50tfmF-enNTS1-R213. Briefly: Receptor-observed 19F NMR, G50tfmF-enNTS1-R213.
The subject of data set [4] is G50tfmF-enNTS1-P51A-R213. Description: Receptor-observed 19F NMR, G50tfmF-enNTS1-P51A-R213. To be noted: G50tfmF-enNTS1-P51A-R213, ligand bound, 298 K, spectral deconvolution.
Data set [5] relates to G50tfmF-enNTS1. Briefly: Receptor-observed 19F NMR, G50tfmF-enNTS1.
Setting [6] is: 0.1 min, no back-exchange correction.
Setting [7] is: G50tfmF-enNTS1-R213, ligand bound, 298 K, spectral deconvolution.
The mark [8] stands for this setting: G50tfmF-enNTS1, ligand bound, 298 K, spectral deconvolution.

“And” between values parts separate entries of the source, which are not always exact repeats. Identical values can stand only once.

For “Y11tfmF-NT: fluorinated analogue of NT, Tyr11 substituted with para-trifluoromethyl-phenylalanine (ELYENKPRRPFIL; para-trifluoromethyl-phenylalanine (tfmF) at position 11; pyroglutamate (pE) at position 1 as in NT)”, in data set [1] (19F NMR), the “signal splitting / conformational heterogeneity in complex with enNTS1” value is given as “two distinct resonances were observed”. In addition, the “population of additional upfield bound state (19F NMR)” value in data set [1] (enNTS1 complex, 50 mM potassium phosphate pH 7.4, 0.05% DDM) was ~ 25%.

Take “Y11tfmF-NT8-13: truncated version of 19F-NT (RRPFIL; para-trifluoromethyl-phenylalanine (tfmF) at position 11)”: the “signal splitting / conformational heterogeneity in complex with enNTS1” value in data set [1] (19F NMR) was “Such signal splitting can be observed”. Besides, in data set [1] (19F NMR, enNTS1 complex), the “population of S1 conformer” value is on record as ~ 25%.

Take `COc1cccc(OC)c1-c1cc(C(=O)NC2(C(=O)O)C3CC4CC(C3)CC2C4)nn1-c1ccc(C(=O)N(C)CCCN(C)C)cc1C(C)C` (centres unmarked) [SR142948A]: in data set [2] (0.1 min), the “Relative deuterium uptake, FDFYHYF (TM7)” value is -0.1975 Da; the “Relative deuterium uptake, FTMGLQNL (ECL2)” value turned out to be 1.081 Da; the “Relative deuterium uptake, PVDVYN (TM2; printed PVDYN in NT8-13 table)” value (shortened to “Relative deuterium uptake, PVDVYN”) was 0.0863 Da. Moreover, the “Relative deuterium uptake, DVNTDIYSKV (TM1)” value in data set [2] (setting [6]) is listed as 4.064 Da. For the same compound, in data set [2] (1 min), the “Relative deuterium uptake, DVNTDIYSKV (TM1)” value is reported as 4.291 Da; the “Relative deuterium uptake, FDFYHYF (TM7)” value came to 0.1096 Da; the “Relative deuterium uptake, FTMGLQNL (ECL2)” value is reported as 1.126 Da; the “Relative deuterium uptake, PVDVYN” value is recorded as 0.06178 Da. In addition, in data set [2] (10 min), the “Relative deuterium uptake, DVNTDIYSKV (TM1)” value is listed as 5.3117 Da; the “Relative deuterium uptake, FDFYHYF (TM7)” value was found to be 0.3061 Da; the “Relative deuterium uptake, FTMGLQNL (ECL2)” value is given as 1.585 Da; the “Relative deuterium uptake, PVDVYN” value is 0.08314 Da. In addition, in data set [2] (100 min), the “Relative deuterium uptake, DVNTDIYSKV (TM1)” value stood at 5.214 Da; the “Relative deuterium uptake, FDFYHYF (TM7)” value came to 0.7404 Da; the “Relative deuterium uptake, FTMGLQNL (ECL2)” value was 2.166 Da; the “Relative deuterium uptake, PVDVYN” value was 0.3304 Da. Besides, in data set [2] (enNTS1 apo vs ligand bound), the “deuterium uptake change, first residues of TM1 (DVNTDIYSKV)” value was “absence of such protection”; the “protection from deuterium exchange, extracellular end of TM2” value is “increase in protection from deuterium exchange”; the “protection from deuterium exchange, extracellular end of TM7” value is reported as “increase in protection from deuterium exchange”; the “protection from deuterium exchange, peptides from ECL2” value is on record as “increase in protection in either ligand bound state”. Also, in data set [3] (G50tfmF-enNTS1-R213, 19F NMR), the “formation of substate P4” value is given as “no evidence of formation of the substate P4”. Moreover, in data set [3] (setting [7]), the “population of P1” value is 29.3%, the “population of P2” value is 49% and the “population of P3” value is 21.7%.

As to NT8-13: last six residues of NT, the “Relative deuterium uptake, FDFYHYF (TM7)” value in data set [2] (0.1 min) is given as -0.1264 Da; in data set [2] (1 min), -0.1354 Da; in data set [2] (10 min), -0.1142 Da; in data set [2] (100 min), 0.2797 Da. Further, the “Relative deuterium uptake, FTMGLQNL (ECL2)” value in data set [2] (0.1 min) stood at 0.5871 Da; in data set [2] (1 min), 0.5887 Da; in data set [2] (10 min), 0.7752 Da; in data set [2] (100 min), 1.448 Da. In addition, the “Relative deuterium uptake, DVNTDIYSKV (TM1)” value stood at 2.294 Da in data set [2] (setting [6]), 2.382 Da in data set [2] (1 min), 2.712 Da in data set [2] (10 min) and 3.919 Da in data set [2] (100 min). Also, in data set [3] (setting [7]), the “population of P2” value is given as 9.3%. The “population of P3” value is 1.3% in data set [3] (setting [7]), 23% in data set [4] and 10% in data set [5] (setting [8]). Besides, the “population of P4” value in data set [3] (setting [7]) is 89.4% and ~ 90%; in data set [4], 77%; in data set [5] (setting [8]), 90% and ~ 90%. For the same compound, the “P1 in ligand bound state” value in data set [5] (G50tfmF-enNTS1, 19F NMR, saturating ligand) is “P1 disappears”. In data set [5] (G50tfmF-enNTS1, saturating NT8-13 (10-fold excess)), the “P2 in ligand bound state” value is recorded as “absent”.

“P10A-Y11tfmF-NT8-13: Mutation of Pro10 to alanine in Y11tfmF-NT8-13 (RRAFIL; para-trifluoromethyl-phenylalanine (tfmF) at position 11)”: the “signal splitting / conformational heterogeneity in complex with enNTS1” value in data set [1] (19F NMR) is on record as “preserves the conformational heterogeneity”.
